{"source": "patent US10525115B2", "about": "(Immatics Biotechnologies GmbH, priority 2014, dated 2020)", "key": {"primary AML samples": {"system": "primary AML samples", "test": "HLA class II ligandome analysis (LC-MS/MS) of primary AML samples", "set-up": "species or system human", "details": "HLA class II ligandome, AML patients n=12"}, "[1]": {"system": "cancer tissues in comparison to non-cancerous tissues and organs", "test": "Presentation profile / over-presentation by label-free LC-MS (XPRESIDENT), tumor versus normal tissues, other proliferative diseases", "set-up": "species or system human", "details": "other proliferative diseases / organs (other than AML) that over- or exclusively present the peptide; Table 5"}}, "data": [{"substance": "580 (HQPHKVTQYKKGKDSLY; listed as Homo sapiens) [compound 580]", "values": [{"measurement": "Number of positive AMLs", "setting": "primary AML samples", "result": 2}, {"measurement": "Proliferative disease and location thereof", "setting": "[1]", "result": "liposarcoma"}]}, {"substance": "535 (DTSYVSLKAPLT; listed as Homo sapiens) [compound 535]", "values": [{"measurement": "Number of positive AMLs", "setting": "primary AML samples", "result": 2}, {"measurement": "Proliferative disease and location thereof", "setting": "[1]", "result": "liver, hepatocellular carcinoma, cancer"}]}, {"substance": "506 (YPTPDISWSKLDGSLPP; listed as Homo sapiens) [compound 506]", "values": [{"measurement": "Number of positive AMLs", "setting": "primary AML samples", "result": 1}, {"measurement": "Proliferative disease and location thereof", "setting": "[1]", "result": "pancreas, adenocarcinoma, myometrium, leiomyoma"}]}, {"substance": "456 (HLEEPLSLQELDTSSG; listed as Homo sapiens) [compound 456]", "values": [{"measurement": "Number of positive AMLs", "setting": "primary AML samples", "result": 1}, {"measurement": "Proliferative disease and location thereof", "setting": "[1]", "result": "lymph node, non-Hodgkin's lymphoma"}]}, {"substance": "510 (GQVIVAIPKLQTQ; listed as Homo sapiens) [compound 510]", "values": [{"measurement": "Number of positive AMLs", "setting": "primary AML samples", "result": 1}, {"measurement": "Proliferative disease and location thereof", "setting": "[1]", "result": "parathyroid gland, adenoma"}]}, {"substance": "451 (SPDRIFFHLNAVALGD; listed as Homo sapiens) [compound 451]", "values": [{"measurement": "Number of positive AMLs", "setting": "primary AML samples", "result": 1}, {"measurement": "Proliferative disease and location thereof", "setting": "[1]", "result": "liver, hepatocellular carcinoma, cancer"}]}, {"substance": "507 (YPTPDISWSKLDGSLPPD; listed as Homo sapiens) [compound 507]", "values": [{"measurement": "Number of positive AMLs", "setting": "primary AML samples", "result": 1}, {"measurement": "Proliferative disease and location thereof", "setting": "[1]", "result": "pancreas, adenocarcinoma, myometrium, leiomyoma"}]}, {"substance": "552 (AISDYVFNTASLVYHEE; listed as Homo sapiens) [compound 552]", "values": [{"measurement": "Number of positive AMLs", "setting": "primary AML samples", "result": 2}, {"measurement": "Proliferative disease and location thereof", "setting": "[1]", "result": "liver, hepatocellular carcinoma, cancer"}]}, {"substance": "590 (ESEARFRIDSVSEGNAGP; listed as Homo sapiens) [compound 590]", "values": [{"measurement": "Number of positive AMLs", "setting": "primary AML samples", "result": 1}, {"measurement": "Proliferative disease and location thereof", "setting": "[1]", "result": "pancreas, adenocarcinoma, lipoma"}]}, {"substance": "583 (GTAQGELFLDDGHT; listed as Homo sapiens) [compound 583]", "values": [{"measurement": "Number of positive AMLs", "setting": "primary AML samples", "result": 1}, {"measurement": "Proliferative disease and location thereof", "setting": "[1]", "result": "liver, hepatocellular carcinoma, cancer, small intestine, gastrointestinal stromal tumor"}]}, {"substance": "560 (TPPRLVAPRFLEVET; listed as Homo sapiens) [compound 560]", "values": [{"measurement": "Number of positive AMLs", "setting": "primary AML samples", "result": 1}, {"measurement": "Proliferative disease and location thereof", "setting": "[1]", "result": "stomach, metastatic, non-Hodgkin's lymphoma"}]}, {"substance": "529 (RLPIIDVAPLDVGAPD; listed as Homo sapiens) [compound 529]", "values": [{"measurement": "Number of positive AMLs", "setting": "primary AML samples", "result": 3}, {"measurement": "Proliferative disease and location thereof", "setting": "[1]", "result": "pancreas, adenocarcinoma, chondrosarcoma"}]}, {"substance": "470 (AQPILSKLEPQIASASE; listed as Homo sapiens) [compound 470]", "values": [{"measurement": "Number of positive AMLs", "setting": "primary AML samples", "result": 1}, {"measurement": "Proliferative disease and location thereof", "setting": "[1]", "result": "pancreas, adenocarcinoma, bone, giant cell tumor; of bone"}]}, {"substance": "550 (QALDFFGNGPPVNYKTG; listed as Homo sapiens) [compound 550]", "values": [{"measurement": "Number of positive AMLs", "setting": "primary AML samples", "result": 1}, {"measurement": "Proliferative disease and location thereof", "setting": "[1]", "result": "lung, non-small cell lung carcinoma, bone, non- ossifying fibroma"}]}, {"substance": "474 (KGVRTLTAAAVSGAQ; listed as Homo sapiens) [compound 474]", "values": [{"measurement": "Number of positive AMLs", "setting": "primary AML samples", "result": 1}, {"measurement": "Proliferative disease and location thereof", "setting": "[1]", "result": "pancreas, adenocarcinoma, bone, giant cell tumor; of bone"}]}, {"substance": "578 (RIQLVEEELDRAQER; listed as Homo sapiens) [compound 578]", "values": [{"measurement": "Number of positive AMLs", "setting": "primary AML samples", "result": 2}, {"measurement": "Proliferative disease and location thereof", "setting": "[1]", "result": "pancreas, adenocarcinoma, intramuscular lipoma"}]}, {"substance": "468 (VRPGGVVHSFSHNVGPGDKYT; listed as Homo sapiens) [compound 468]", "values": [{"measurement": "Number of positive AMLs", "setting": "primary AML samples", "result": 1}, {"measurement": "Proliferative disease and location thereof", "setting": "[1]", "result": "liver, hepatocellular carcinoma, cancer, lung, adenocarcinoma"}]}, {"substance": "557 (SPNIVIALSGNKADL; listed as Homo sapiens) [compound 557]", "values": [{"measurement": "Number of positive AMLs", "setting": "primary AML samples", "result": 1}, {"measurement": "Proliferative disease and location thereof", "setting": "[1]", "result": "brain, glioblastoma, endometrium, adenocarcinoma"}]}, {"substance": "491 (LNSLTYQVLDVQRYP; listed as Homo sapiens) [compound 491]", "values": [{"measurement": "Number of positive AMLs", "setting": "primary AML samples", "result": 1}, {"measurement": "Proliferative disease and location thereof", "setting": "[1]", "result": "kidney, clear cell renal cell carcinoma, endometrium, adenocarcinoma"}]}, {"substance": "569 (SSKLLSGVLFHSSPA; listed as Homo sapiens) [compound 569]", "values": [{"measurement": "Number of positive AMLs", "setting": "primary AML samples", "result": 1}, {"measurement": "Proliferative disease and location thereof", "setting": "[1]", "result": "stomach, metastatic, liver, hepatic adenoma"}]}, {"substance": "539 (ESDTSYVSLKAPLTKPL; listed as Homo sapiens) [compound 539]", "values": [{"measurement": "Number of positive AMLs", "setting": "primary AML samples", "result": 1}, {"measurement": "Proliferative disease and location thereof", "setting": "[1]", "result": "liver, hepatocellular carcinoma, cancer"}]}, {"substance": "498 (RKSRQGSLAMEELK; listed as Homo sapiens) [compound 498]", "values": [{"measurement": "Number of positive AMLs", "setting": "primary AML samples", "result": 3}, {"measurement": "Proliferative disease and location thereof", "setting": "[1]", "result": "rectum, adenocarcinoma"}]}, {"substance": "487 (SQKKTFEINPRHPLIR; listed as Homo sapiens) [compound 487]", "values": [{"measurement": "Number of positive AMLs", "setting": "primary AML samples", "result": 1}, {"measurement": "Proliferative disease and location thereof", "setting": "[1]", "result": "liver, hepatocellular carcinoma, cancer, thyroid; gland, nodular hyperplasia"}]}, {"substance": "503 (DGVLRIQNLDQS; listed as Homo sapiens) [compound 503]", "values": [{"measurement": "Number of positive AMLs", "setting": "primary AML samples", "result": 4}, {"measurement": "Proliferative disease and location thereof", "setting": "[1]", "result": "pancreas, adenocarcinoma, myometrium, leiomyoma"}]}, {"substance": "595 (SPSESEARFRIDSVSEGNAGPY; listed as Homo sapiens) [compound 595]", "values": [{"measurement": "Number of positive AMLs", "setting": "primary AML samples", "result": 1}, {"measurement": "Proliferative disease and location thereof", "setting": "[1]", "result": "pancreas, adenocarcinoma, lipoma"}]}, {"substance": "485 (PEFDGKRFQNVAK; listed as Homo sapiens) [compound 485]", "values": [{"measurement": "Number of positive AMLs", "setting": "primary AML samples", "result": 1}, {"measurement": "Proliferative disease and location thereof", "setting": "[1]", "result": "liver, hepatocellular carcinoma, cancer, thyroid; gland, nodular hyperplasia"}]}, {"substance": "476 (HRSFVDLSGHNLA; listed as Homo sapiens) [compound 476]", "values": [{"measurement": "Number of positive AMLs", "setting": "primary AML samples", "result": 1}, {"measurement": "Proliferative disease and location thereof", "setting": "[1]", "result": "brain, glioblastoma, parotid gland, pleomorphic; adenoma"}]}, {"substance": "581 (RKKAKTTKKIVL; listed as Homo sapiens) [compound 581]", "values": [{"measurement": "Number of positive AMLs", "setting": "primary AML samples", "result": 1}, {"measurement": "Proliferative disease and location thereof", "setting": "[1]", "result": "liposarcoma"}]}, {"substance": "497 (GRRKSRQGSLAMEELK; listed as Homo sapiens) [compound 497]", "values": [{"measurement": "Number of positive AMLs", "setting": "primary AML samples", "result": 1}, {"measurement": "Proliferative disease and location thereof", "setting": "[1]", "result": "rectum, adenocarcinoma"}]}, {"substance": "543 (DPASFRAAIGLLARH; listed as Homo sapiens) [compound 543]", "values": [{"measurement": "Number of positive AMLs", "setting": "primary AML samples", "result": 3}, {"measurement": "Proliferative disease and location thereof", "setting": "[1]", "result": "kidney, clear cell renal cell carcinoma, colon, adenocarcinoma"}]}, {"substance": "589 (EARFRIDSVSEGNAGP; listed as Homo sapiens) [compound 589]", "values": [{"measurement": "Number of positive AMLs", "setting": "primary AML samples", "result": 1}, {"measurement": "Proliferative disease and location thereof", "setting": "[1]", "result": "pancreas, adenocarcinoma, lipoma"}]}, {"substance": "454 (EEPLSLQELDTSSG; listed as Homo sapiens) [compound 454]", "values": [{"measurement": "Number of positive AMLs", "setting": "primary AML samples", "result": 4}, {"measurement": "Proliferative disease and location thereof", "setting": "[1]", "result": "lymph node, non-Hodgkin's lymphoma"}]}, {"substance": "500 (SGSGPSLKGEEEPLVASEDGAVD; listed as Homo sapiens) [compound 500]", "values": [{"measurement": "Number of positive AMLs", "setting": "primary AML samples", "result": 1}, {"measurement": "Proliferative disease and location thereof", "setting": "[1]", "result": "rectum, adenocarcinoma"}]}, {"substance": "563 (FGAIFFLPDSSK; listed as Homo sapiens) [compound 563]", "values": [{"measurement": "Number of positive AMLs", "setting": "primary AML samples", "result": 1}, {"measurement": "Proliferative disease and location thereof", "setting": "[1]", "result": "stomach, metastatic, liver, hepatic adenoma"}]}, {"substance": "604 (FEGQFSINKVPGNFHVS; listed as Homo sapiens) [compound 604]", "values": [{"measurement": "Number of positive AMLs", "setting": "primary AML samples", "result": 2}, {"measurement": "Proliferative disease and location thereof", "setting": "[1]", "result": "kidney, clear cell renal cell carcinoma, prostate, adenocarcinoma"}]}, {"substance": "536 (DTSYVSLKAPLTKP; listed as Homo sapiens) [compound 536]", "values": [{"measurement": "Number of positive AMLs", "setting": "primary AML samples", "result": 1}, {"measurement": "Proliferative disease and location thereof", "setting": "[1]", "result": "liver, hepatocellular carcinoma, cancer"}]}]}
